# Some results were stated once for a whole list of compounds, not compound by compound.
# Sequences of proteins named here, by UniProt entry; tags and fusion partners are left off. A change or cut given only in a name is not applied to a line headed by its entry.
# UniProt P04618: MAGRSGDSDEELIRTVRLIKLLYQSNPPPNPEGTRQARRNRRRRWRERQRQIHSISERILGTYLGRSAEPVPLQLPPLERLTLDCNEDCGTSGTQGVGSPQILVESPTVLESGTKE
# Molecular target: T1, Rev peptide / RRR (Human immunodeficiency virus type 1 group M subtype B, UniProt P04618)
# T1 construct: includes aminoacids 34 to 50 of the Rev protein
# Experiment: RRR screen (screen 1) of antibiotics: restoration of cleavage activity
# Assay type: biochemical, HIV
# Conditions: 100 μM antibiotic, 1 μM Rev peptide
# Method: Cleavage reactions with multiple turnover were performed at 32° C. in a test buffer containing 50 mM Tris (pH 7.9) and 25 mM NaCl. The total volume of the reactions was 50 μl in plates with 96 flat bottom wells. The fluorescence measurements were performed at an excitation wavelength of 489 nm, FAM emission at 520 nm and with the fluorescence detector Ascent Fluoroscan FL, as described by Jenne, A. et al., Rapid identification and characterization of hammerhead-ribozyme inhibitors using fluorescence-based technology, Nat Biotechnol 19, 56-61 (2001). Ribozyme (10 nM) and FRET-labeled substrate (200 nM) were first incubated in test buffer at room temperature for 5 min, followed by optional addition of Rev and/or antibiotic. The reactions were then incubated for 5 min at 32° C. and started by the addition of MgCl2 to a final concentration of 8 mM, using the dispensing function of the fluorometer. Negative controls were always included for reactions without ribozyme and were subtracted after the measurements.
# Two different screening experiments were performed, one using the RRR reporter construct and the other using AIR. […] Each reaction which contained antibiotics also contained Rev peptide. For each antibiotic, three different reactions were performed: HHR, reporter construct (RRR or AIR), negative controls, which only contained antibiotic and Rev and substrate. The antibiotic concentrations were 100 μM in each case. After subtraction of the negative control, the rise in fluorescence in the first five minutes, corresponding to the initial rate of reaction, was divided by the rise in fluorescence in the standard reaction without antibiotic, containing the active state of the ribozyme (see also FIG. 10).
# […]. […] […].
# Three compounds were identified which gave significant activation (above 0.75), namely coumermycin A1 (#21), nosiheptide (#58) and patulin (#63), as also shown in Table 1a.
row,Compound,RRR screen reading (activation of RRR relative to HHR; total reactivation = 1)
1,C=C(NC(=O)c1csc(-c2nc3c(cc2O)-c2nc(cs2)C(=O)NC(C(C)O)C(=O)N/C(=C\C)c2nc(cs2)C(=O)NC2CC(O)C(=O)OCc4cccc5[nH]c(c(C)c45)C(=O)SCC(NC(=O)c4csc2n4)c2nc-3cs2)n1)C(N)=O (stereo not drawn) [nosiheptide],above 0.75
2,O=C1C=C2C(=CCOC2O)O1 (stereo not drawn) [patulin],above 0.75
3,coumermycin A1,above 0.75

# Reference: patent US20050202423A1, “Method for identifying compounds or lead structures against rna target motifs and rna/protein interactions” (priority 2000, published 2005)
